Reference: PMC5701637
Construct, isoform or probe ends are uncertain for at least one entry. At least one verdict was read from the data and is not stated in words by the source.

The chains behind the UniProt entries cited, without tags or fusion partners. Where a name states a change or a piece, a line headed by the entry shows the natural chain unless it says otherwise.
UniProt P0AGE0: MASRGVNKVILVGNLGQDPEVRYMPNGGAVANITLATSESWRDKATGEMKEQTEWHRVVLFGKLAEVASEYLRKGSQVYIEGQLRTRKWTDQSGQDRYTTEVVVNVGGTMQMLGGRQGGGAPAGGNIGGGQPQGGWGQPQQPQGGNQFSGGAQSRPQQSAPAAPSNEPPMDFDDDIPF

Target: single-strand binding protein (SSB) (Escherichia coli DH5alpha) (UniProt P0AGE0)
Test: fluorescence polarization
Settings: 20 nM SSB, 5 nM DNA; FP: 25 mM MOPS pH 7.5, 1.25 mM MgCl2, 0.0025 mg/mL BSA, 0.005% Tween 20, 0.025 mM DTT, 1% DMSO, temperature not stated; recombinant …; single-stranded DNA

## TTTTTTTTTTTTTTT [Cy5-dT15]
  binding result: binds
